Source: the supplement of paper PMC9015667
Counter-ions that a name gives are not always drawn. The list shows a part of the results. Repeats are few or missing, and single values can be far off.

Legend:
Experiment in all cases: reduction in cell viability relative to untreated/vehicle; higher = more growth inhibition
Conditions in all cases: 200 nM; 72 h
M229P = system: M229P (parental melanoma line)
M229R = system: M229R (matched melanoma line resistant to BRAF inhibitors)
M238P = system: M238P (parental melanoma line)
M238R = system: M238R (matched melanoma line resistant to BRAF inhibitors)
M249P = system: M249P (parental melanoma line)
M249R = system: M249R (matched melanoma line resistant to BRAF inhibitors)
UACC62P = system: UACC62P (parental melanoma line)
UACC62R = system: UACC62R (matched melanoma line resistant to BRAF inhibitors)

Measured: reduction in cell viability

NS(=O)(=O)c1cc2c(cc1Cl)N=CNS2(=O)=O [Chlorothiazide]
< 0%: M229P | M229R | M238P | M238R | M249P | M249R | UACC62P | UACC62R

C[C@H](NC(=O)Cc1cc(F)cc(F)c1)C(=O)N[C@@H]1C(=O)N(C)c2ccccc2-c2ccccc21
< 0%: M229P | M229R | M238P | M238R | M249P | M249R | UACC62P | UACC62R

CCC[C@@H](C=O)NC(=O)[C@H](CC(C)C)NC(=O)[C@H](CC(C)C)NC(=O)OCc1ccccc1
89.7%: M238R
90.5%: M238P
47.5%: UACC62P
58%: M229R
73.6%: M229P
92.7%: M249P
86%: UACC62R
92.4%: M249R

COc1ccc2c3n(c(=NC(=O)c4cccnc4)nc2c1OC)CCN3
< 0%: M229P | M229R | M238P | M238R | M249P | M249R | UACC62P | UACC62R

COc1cccc2c1C(=O)c1c(O)c3c(c(O)c1C2=O)C[C@@](O)(C(C)=O)C[C@@H]3O[C@H]1C[C@H](N)[C@H](O)[C@H](C)O1 [Daunorubicin]
< 0%: M229P | M229R | M238P | M238R | M249P | M249R | UACC62P | UACC62R

Cc1c2oc3c(C)ccc(C(=O)N[C@@H]4C(=O)N[C@H](C(C)C)C(=O)N5CCC[C@H]5C(=O)N(C)CC(=O)N(C)[C@@H](C(C)C)C(=O)O[C@@H]4C)c3nc-2c(C(=O)N[C@@H]2C(=O)N[C@H](C(C)C)C(=O)N3CCC[C@H]3C(=O)N(C)CC(=O)N(C)[C@@H](C(C)C)C(=O)O[C@@H]2C)c(N)c1=O [Actinomycin D]
69.7%: M229R
83%: UACC62R
86.1%: M249P
63.5%: M238R
83.1%: M249R
79.6%: M229P
77.8%: M238P
75.9%: UACC62P

O=C(O)[C@H]1O[C@@H](Oc2cc3oc(-c4ccccc4)cc(=O)c3c(O)c2O)[C@H](O)[C@@H](O)[C@@H]1O [Baicalin]
< 0%: M229P | M238P | M238R | M249P | M249R | UACC62P | UACC62R
1.57%: M229R

c1cncc(CN2CCC(n3ncc4c(N5CCOCC5)nc(-c5ccc6[nH]ccc6c5)nc43)CC2)c1
2.47%: M249R
9.46%: M229R
< 0%: M229P | M238P | M238R | M249P | UACC62P | UACC62R

O=C(C[S+]([O-])Cc1ccco1)NC/C=C\COc1cc(CN2CCCCC2)ccn1 (stereo not drawn) [Lafutidine]
< 0%: M229P | M229R | M238P | M238R | M249P | M249R | UACC62P | UACC62R

C=CCNc1c(O)cc2c(O)c1C[C@@H](C)C[C@H](OC)[C@H](O)[C@@H](C)/C=C(\C)[C@H](OC(N)=O)[C@@H](OC)/C=C\C=C(/C)C(=O)N2 [Retaspimycin]
74.2%: UACC62P
10.4%: M229R
56%: M238P
58.6%: M238R
76%: UACC62R
3.85%: M229P
13.1%: M249R
18.2%: M249P

CC(C)NCC(O)COc1ccc(COCCOC(C)C)cc1 (stereo not drawn) [Bisoprolol]
2.92%: M229R
< 0%: M229P | M238P | M238R | M249P | M249R | UACC62P | UACC62R

C[C@]12CC[C@H](O)CC1=CC[C@@H]1[C@@H]2CC[C@]2(C)C(c3cccnc3)=CC[C@@H]12 [Abiraterone]
0.42%: UACC62P
< 0%: M229P | M229R | M238P | M238R | M249P | M249R | UACC62R

COc1cc(OC)c(C(=O)CCCN2CCCC2)c(OC)c1 [Buflomedil hydrochloride]
< 0%: M229P | M229R | M238P | M238R | M249P | M249R | UACC62P | UACC62R

O=C(CCCCCCC(=O)Nc1cccnc1)NO [Pyroxamide]
< 0%: M229P | M229R | M238P | M238R | M249P | M249R | UACC62P | UACC62R

COc1ccc(CCC(=O)c2c(O)cc(O[C@@H]3O[C@H](CO)[C@@H](O)[C@H](O)[C@H]3O[C@@H]3O[C@@H](C)[C@H](O)[C@@H](O)[C@H]3O)cc2O)cc1O [Neohesperidin dihydrochalcone]
0.04%: UACC62P
< 0%: M229P | M229R | M238P | M238R | M249P | M249R | UACC62R

NS(=O)(=O)c1cc2c(cc1Cl)NCNS2(=O)=O [Hydrochlorothiazide]
< 0%: M229P | M229R | M238P | M238R | M249P | UACC62P | UACC62R
11.8%: M249R

NCCc1c[nH]cn1 [Histamine dihydrochloride]
< 0%: M229P | M229R | M238P | M238R | M249P | M249R | UACC62R
0.6%: UACC62P

O=C1NC(=O)[C@@H](c2cn3c4c(cccc24)CCC3)[C@@H]1c1c[nH]c2ccccc12 [Tivantinib]
< 0%: M238R | M249P | UACC62P
41.6%: M229R
30.5%: M238P
64.6%: UACC62R
20%: M249R
14.4%: M229P

COc1ncnc(NS(=O)(=O)c2ccc(N)cc2)c1OC [Sulfadoxine]
2.24%: UACC62P
2%: M249P
< 0%: M229P | M229R | M238P | M238R | M249R | UACC62R

C[C@@]12C[C@@]3(O)O[C@@H](O1)[C@]1(COC(=O)c4ccccc4)[C@H]3C[C@@]12O[C@@H]1O[C@H](CO)[C@@H](O)[C@H](O)[C@H]1O [Paeoniflorin]
< 0%: M229P | M229R | M238P | M238R | M249P | M249R | UACC62P | UACC62R

C[C@@H](O)[C@H](NC(=O)[C@@H]1CSSC[C@H](NC(=O)[C@H](N)Cc2ccccc2)C(=O)N[C@@H](Cc2ccc(O)cc2)C(=O)N[C@H](Cc2c[nH]c3ccccc23)C(=O)N[C@@H](CCCCN)C(=O)N1)C(N)=O
< 0%: M229P | M229R | M238P | M238R | M249P | M249R | UACC62P | UACC62R

A draw from above in order of molecular weight, ascending:
COc1cc(OC)c(C(=O)CCCN2CCCC2)c(OC)c1 [Buflomedil hydrochloride]
< 0%: M229P | M229R | M238P | M238R | M249P | M249R | UACC62P | UACC62R

COc1cccc2c1C(=O)c1c(O)c3c(c(O)c1C2=O)C[C@@](O)(C(C)=O)C[C@@H]3O[C@H]1C[C@H](N)[C@H](O)[C@H](C)O1 [Daunorubicin]
< 0%: M229P | M229R | M238P | M238R | M249P | M249R | UACC62P | UACC62R

C[C@@H](O)[C@H](NC(=O)[C@@H]1CSSC[C@H](NC(=O)[C@H](N)Cc2ccccc2)C(=O)N[C@@H](Cc2ccc(O)cc2)C(=O)N[C@H](Cc2c[nH]c3ccccc23)C(=O)N[C@@H](CCCCN)C(=O)N1)C(N)=O
< 0%: M229P | M229R | M238P | M238R | M249P | M249R | UACC62P | UACC62R

The list goes on.

COc1ccc(CC(=O)NC(/N=C(\NC#N)Nc2cccc3ncccc23)C(C)(C)C)cc1OC (stereo not drawn)
< 0%: M229P | M229R | M238P | M238R | M249P | M249R | UACC62P | UACC62R

O[C@@H](CNC[C@H](O)[C@H]1CCc2cc(F)ccc2O1)[C@@H]1CCc2cc(F)ccc2O1 (racemic) [rac Nebivolol hydrochloride]
< 0%: M229P | M229R | M238P | M238R | M249P | M249R | UACC62P | UACC62R

C=C[C@H]1CN2CC[C@H]1C[C@H]2[C@H](O)c1ccnc2ccc(OC)cc12 [Quinine]
< 0%: M229P | M229R | M238P | M238R | M249P | M249R | UACC62P | UACC62R

NC(=O)c1ccc(-c2nc(-c3ccccn3)c(-c3ccc4c(c3)OCO4)[nH]2)cc1
< 0%: M229P | M229R | M238P | M238R | M249P | M249R | UACC62P | UACC62R

CN1C(C(=O)Nc2ccccn2)=C(O)c2sccc2S1(=O)=O [Tenoxicam]
< 0%: M229P | M229R | M238P | M238R | M249P | M249R | UACC62P | UACC62R

COc1ccc(-c2oc3c(CC=C(C)C)c(O[C@@H]4O[C@H](CO)[C@@H](O)[C@H](O)[C@H]4O)cc(O)c3c(=O)c2O[C@@H]2O[C@@H](C)[C@H](O)[C@@H](O)[C@H]2O)cc1 [Icariin]
< 0%: M229P | M229R | M238P | M238R | M249P | M249R | UACC62P | UACC62R

CC(=O)OCC(=O)[C@@]12N=C(C)O[C@@H]1C[C@H]1[C@@H]3CCC4=CC(=O)C=C[C@]4(C)[C@H]3[C@@H](O)C[C@@]12C [Deflazacort]
< 0%: M229P | M229R | M238P | M238R | M249P | M249R | UACC62P | UACC62R

CC1(C)O[C@H]2CC(=O)OC[C@]23[C@H]2CC[C@@]4(C)[C@H](c5ccoc5)OC(=O)[C@H]5O[C@]54[C@]2(C)C(=O)C[C@@H]13 [Limonin]
< 0%: M229P | M229R | M238P | M238R | M249P | UACC62P | UACC62R
1.35%: M249R

C[C@@H]1[C@H](O)[C@@H](C)/C=C/C=C/C=C/C=C/C=C/C=C/C=C/[C@H](O[C@@H]2O[C@H](C)[C@@H](O)[C@H](N)[C@@H]2O)C[C@@H]2O[C@](O)(C[C@@H](O)C[C@@H](O)[C@H](O)CC[C@@H](O)C[C@@H](O)CC(=O)O[C@H]1C)C[C@H](O)[C@H]2C(=O)O [Amphotericin B]
< 0%: M229P | M229R | M238P | M238R | M249P | M249R | UACC62P | UACC62R

COc1ccc(C(=O)CC(=O)c2ccc(C(C)(C)C)cc2)cc1 [Avobenzone]
< 0%: M229P | M229R | M238P | M238R | M249P | M249R | UACC62P | UACC62R

CCOc1ccccc1OCCN[C@H](C)Cc1ccc(OC)c(S(N)(=O)=O)c1 [Tamsulosin hydrochloride]
< 0%: M229P | M229R | M238P | M238R | M249P | M249R | UACC62P | UACC62R

O=C(NCCCNc1nc(Nc2cccc(NC(=O)N3CCCC3)c2)ncc1I)c1cccs1
21.6%: M238R
< 0%: M229R | M238P | M249P | M249R
10.6%: M229P
9.13%: UACC62R
21.1%: UACC62P

O=C(c1ccc(C(=O)N2CCC(N3CCCC3)CC2)c(Nc2ccccc2)c1)N1CCC(N2CCCC2)CC1
< 0%: M229P | M229R | M238P | M238R | M249P | M249R | UACC62P | UACC62R

CCNC(=O)CCC/C=C\C[C@@H]1[C@@H](/C=C/[C@@H](O)CCc2ccccc2)[C@H](O)C[C@@H]1O [Bimatoprost]
< 0%: M229P | M229R | M238P | M238R | M249P | M249R | UACC62P | UACC62R

COc1ccc(-c2coc3cc(O)cc(O)c3c2=O)cc1 [Biochanin A]
< 0%: M229P | M229R | M238P | M238R | M249P | M249R | UACC62P | UACC62R
